Paper PMC8039524
No constants are given. Whether binding was seen depends on the method and setting. Binding seen in cells or lysates may run through a third protein. Here binding means that the protein was enriched with, or labelled near, the bait; the list need not be complete.

By UniProt entry, the sequences of proteins in these tests, tags left out. Where a name states a change or a piece, a line headed by the entry shows the natural chain unless it says otherwise. Chains listed by the source or under a name are the forms on record and can include a tag or linker.
UniProt Q3V6T2: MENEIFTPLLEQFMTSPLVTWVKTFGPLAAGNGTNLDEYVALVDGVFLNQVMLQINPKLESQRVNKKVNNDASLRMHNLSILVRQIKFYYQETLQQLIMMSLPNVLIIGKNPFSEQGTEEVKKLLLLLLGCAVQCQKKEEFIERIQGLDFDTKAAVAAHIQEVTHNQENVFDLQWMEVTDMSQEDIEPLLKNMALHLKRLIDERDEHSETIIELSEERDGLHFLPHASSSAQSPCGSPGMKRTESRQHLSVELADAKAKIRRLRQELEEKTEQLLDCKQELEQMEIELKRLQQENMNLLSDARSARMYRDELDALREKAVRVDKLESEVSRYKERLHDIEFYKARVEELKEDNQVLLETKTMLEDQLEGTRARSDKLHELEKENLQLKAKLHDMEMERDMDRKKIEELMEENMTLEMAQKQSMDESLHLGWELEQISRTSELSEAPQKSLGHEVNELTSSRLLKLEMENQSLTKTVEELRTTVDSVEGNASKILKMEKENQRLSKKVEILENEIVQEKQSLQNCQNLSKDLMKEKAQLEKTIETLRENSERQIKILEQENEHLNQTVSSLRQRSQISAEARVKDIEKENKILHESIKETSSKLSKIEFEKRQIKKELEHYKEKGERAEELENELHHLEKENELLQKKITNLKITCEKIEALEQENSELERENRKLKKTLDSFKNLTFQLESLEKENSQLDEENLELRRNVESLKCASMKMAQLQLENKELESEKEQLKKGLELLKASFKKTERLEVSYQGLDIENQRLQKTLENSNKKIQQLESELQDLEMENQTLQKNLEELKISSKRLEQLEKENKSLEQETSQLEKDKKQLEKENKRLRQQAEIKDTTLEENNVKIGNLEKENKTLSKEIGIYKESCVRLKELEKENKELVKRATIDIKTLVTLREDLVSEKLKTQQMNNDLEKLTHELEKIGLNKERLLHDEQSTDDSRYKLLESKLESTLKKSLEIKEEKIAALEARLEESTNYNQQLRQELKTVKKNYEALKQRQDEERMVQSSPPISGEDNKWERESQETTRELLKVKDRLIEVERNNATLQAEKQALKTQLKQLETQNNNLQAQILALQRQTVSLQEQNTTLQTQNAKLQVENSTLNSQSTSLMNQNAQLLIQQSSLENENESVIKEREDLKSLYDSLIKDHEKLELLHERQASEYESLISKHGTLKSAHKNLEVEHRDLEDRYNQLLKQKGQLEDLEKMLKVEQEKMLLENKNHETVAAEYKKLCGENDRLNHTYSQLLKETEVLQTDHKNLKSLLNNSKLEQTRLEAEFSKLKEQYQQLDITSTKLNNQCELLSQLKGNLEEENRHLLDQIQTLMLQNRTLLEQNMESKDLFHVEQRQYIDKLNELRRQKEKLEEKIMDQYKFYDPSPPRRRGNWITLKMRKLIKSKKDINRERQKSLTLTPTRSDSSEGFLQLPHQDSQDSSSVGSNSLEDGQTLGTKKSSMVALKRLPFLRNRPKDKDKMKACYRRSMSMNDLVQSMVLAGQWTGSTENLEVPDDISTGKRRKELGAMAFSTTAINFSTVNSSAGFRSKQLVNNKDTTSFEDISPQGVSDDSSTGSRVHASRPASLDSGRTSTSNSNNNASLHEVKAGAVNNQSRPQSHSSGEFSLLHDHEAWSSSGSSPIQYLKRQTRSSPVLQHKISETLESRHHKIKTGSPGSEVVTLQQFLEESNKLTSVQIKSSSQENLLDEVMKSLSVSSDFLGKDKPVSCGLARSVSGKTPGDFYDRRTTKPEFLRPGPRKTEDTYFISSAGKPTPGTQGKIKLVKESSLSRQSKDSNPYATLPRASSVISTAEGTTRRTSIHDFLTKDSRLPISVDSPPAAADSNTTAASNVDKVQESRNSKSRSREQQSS
UniProt Q16643: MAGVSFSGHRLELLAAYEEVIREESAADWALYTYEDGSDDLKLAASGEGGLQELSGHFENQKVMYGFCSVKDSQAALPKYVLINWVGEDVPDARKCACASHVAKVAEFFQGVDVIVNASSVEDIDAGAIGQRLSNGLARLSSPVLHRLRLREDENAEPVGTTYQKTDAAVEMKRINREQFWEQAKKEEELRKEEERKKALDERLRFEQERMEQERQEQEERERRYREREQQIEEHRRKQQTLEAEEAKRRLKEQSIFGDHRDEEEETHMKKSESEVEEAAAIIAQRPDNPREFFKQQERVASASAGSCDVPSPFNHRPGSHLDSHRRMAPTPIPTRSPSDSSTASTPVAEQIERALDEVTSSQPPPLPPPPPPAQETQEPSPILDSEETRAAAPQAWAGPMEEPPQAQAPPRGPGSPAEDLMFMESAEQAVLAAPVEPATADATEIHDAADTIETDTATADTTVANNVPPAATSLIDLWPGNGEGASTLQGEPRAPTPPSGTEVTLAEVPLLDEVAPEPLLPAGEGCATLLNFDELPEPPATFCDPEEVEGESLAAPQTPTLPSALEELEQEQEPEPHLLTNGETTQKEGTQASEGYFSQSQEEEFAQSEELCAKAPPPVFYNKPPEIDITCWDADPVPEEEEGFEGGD
UniProt P07355: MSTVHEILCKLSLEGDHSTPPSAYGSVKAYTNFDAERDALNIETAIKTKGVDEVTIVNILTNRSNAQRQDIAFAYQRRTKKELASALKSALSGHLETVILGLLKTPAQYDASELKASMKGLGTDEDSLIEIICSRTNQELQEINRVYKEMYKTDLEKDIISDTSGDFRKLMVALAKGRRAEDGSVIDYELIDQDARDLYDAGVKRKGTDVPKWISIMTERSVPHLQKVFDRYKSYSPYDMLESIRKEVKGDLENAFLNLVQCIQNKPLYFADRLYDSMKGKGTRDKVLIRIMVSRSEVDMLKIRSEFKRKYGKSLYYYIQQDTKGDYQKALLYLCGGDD
UniProt P35579: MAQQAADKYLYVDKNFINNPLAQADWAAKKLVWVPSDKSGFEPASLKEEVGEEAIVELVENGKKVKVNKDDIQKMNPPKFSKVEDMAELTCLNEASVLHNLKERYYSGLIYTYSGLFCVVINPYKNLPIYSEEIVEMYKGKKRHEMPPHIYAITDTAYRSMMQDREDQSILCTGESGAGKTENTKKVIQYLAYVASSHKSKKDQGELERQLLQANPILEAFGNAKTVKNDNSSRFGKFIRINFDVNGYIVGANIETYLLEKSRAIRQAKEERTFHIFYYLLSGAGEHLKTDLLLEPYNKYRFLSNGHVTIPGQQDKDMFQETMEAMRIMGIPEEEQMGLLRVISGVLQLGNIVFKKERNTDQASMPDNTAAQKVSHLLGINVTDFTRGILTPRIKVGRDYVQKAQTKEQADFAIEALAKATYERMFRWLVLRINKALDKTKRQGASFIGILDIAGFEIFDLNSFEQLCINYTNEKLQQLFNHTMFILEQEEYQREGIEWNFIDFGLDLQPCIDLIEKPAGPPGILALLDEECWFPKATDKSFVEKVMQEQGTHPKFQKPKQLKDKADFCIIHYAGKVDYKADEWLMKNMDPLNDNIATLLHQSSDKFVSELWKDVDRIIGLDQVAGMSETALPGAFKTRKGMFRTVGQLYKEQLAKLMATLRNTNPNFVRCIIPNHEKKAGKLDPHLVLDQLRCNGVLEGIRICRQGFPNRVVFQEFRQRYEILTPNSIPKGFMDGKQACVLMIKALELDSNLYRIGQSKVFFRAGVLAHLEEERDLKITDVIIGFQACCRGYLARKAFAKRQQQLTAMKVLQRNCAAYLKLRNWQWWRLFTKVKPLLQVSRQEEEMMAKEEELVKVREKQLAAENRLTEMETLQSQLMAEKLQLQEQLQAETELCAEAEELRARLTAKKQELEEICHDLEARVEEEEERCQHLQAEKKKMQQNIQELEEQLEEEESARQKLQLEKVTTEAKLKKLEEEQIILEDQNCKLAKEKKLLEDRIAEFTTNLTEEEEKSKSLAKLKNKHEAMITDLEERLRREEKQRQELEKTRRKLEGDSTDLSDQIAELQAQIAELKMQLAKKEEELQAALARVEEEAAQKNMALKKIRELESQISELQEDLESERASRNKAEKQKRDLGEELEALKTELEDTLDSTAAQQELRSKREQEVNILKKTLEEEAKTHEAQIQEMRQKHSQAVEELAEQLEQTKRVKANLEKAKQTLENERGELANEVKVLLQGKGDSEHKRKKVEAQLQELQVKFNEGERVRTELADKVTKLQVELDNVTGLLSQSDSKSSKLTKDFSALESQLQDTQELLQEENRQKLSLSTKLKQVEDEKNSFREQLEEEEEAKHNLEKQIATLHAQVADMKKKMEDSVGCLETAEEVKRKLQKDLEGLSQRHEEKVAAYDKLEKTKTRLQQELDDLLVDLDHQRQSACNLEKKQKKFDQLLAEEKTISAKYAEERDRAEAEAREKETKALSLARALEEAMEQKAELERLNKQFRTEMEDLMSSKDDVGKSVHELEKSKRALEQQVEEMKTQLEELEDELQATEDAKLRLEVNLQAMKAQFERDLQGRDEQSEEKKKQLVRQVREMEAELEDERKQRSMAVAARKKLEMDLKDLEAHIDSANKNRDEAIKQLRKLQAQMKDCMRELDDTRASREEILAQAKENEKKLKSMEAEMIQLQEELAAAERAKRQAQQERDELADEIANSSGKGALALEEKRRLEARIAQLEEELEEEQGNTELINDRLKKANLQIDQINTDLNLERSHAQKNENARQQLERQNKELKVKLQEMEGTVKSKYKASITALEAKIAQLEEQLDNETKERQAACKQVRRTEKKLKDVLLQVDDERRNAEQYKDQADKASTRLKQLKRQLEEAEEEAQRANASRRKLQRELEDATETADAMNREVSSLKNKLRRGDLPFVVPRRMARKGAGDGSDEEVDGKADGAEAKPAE
Isoform 3 of A-kinase anchor protein 12 (Q02952-3, form named): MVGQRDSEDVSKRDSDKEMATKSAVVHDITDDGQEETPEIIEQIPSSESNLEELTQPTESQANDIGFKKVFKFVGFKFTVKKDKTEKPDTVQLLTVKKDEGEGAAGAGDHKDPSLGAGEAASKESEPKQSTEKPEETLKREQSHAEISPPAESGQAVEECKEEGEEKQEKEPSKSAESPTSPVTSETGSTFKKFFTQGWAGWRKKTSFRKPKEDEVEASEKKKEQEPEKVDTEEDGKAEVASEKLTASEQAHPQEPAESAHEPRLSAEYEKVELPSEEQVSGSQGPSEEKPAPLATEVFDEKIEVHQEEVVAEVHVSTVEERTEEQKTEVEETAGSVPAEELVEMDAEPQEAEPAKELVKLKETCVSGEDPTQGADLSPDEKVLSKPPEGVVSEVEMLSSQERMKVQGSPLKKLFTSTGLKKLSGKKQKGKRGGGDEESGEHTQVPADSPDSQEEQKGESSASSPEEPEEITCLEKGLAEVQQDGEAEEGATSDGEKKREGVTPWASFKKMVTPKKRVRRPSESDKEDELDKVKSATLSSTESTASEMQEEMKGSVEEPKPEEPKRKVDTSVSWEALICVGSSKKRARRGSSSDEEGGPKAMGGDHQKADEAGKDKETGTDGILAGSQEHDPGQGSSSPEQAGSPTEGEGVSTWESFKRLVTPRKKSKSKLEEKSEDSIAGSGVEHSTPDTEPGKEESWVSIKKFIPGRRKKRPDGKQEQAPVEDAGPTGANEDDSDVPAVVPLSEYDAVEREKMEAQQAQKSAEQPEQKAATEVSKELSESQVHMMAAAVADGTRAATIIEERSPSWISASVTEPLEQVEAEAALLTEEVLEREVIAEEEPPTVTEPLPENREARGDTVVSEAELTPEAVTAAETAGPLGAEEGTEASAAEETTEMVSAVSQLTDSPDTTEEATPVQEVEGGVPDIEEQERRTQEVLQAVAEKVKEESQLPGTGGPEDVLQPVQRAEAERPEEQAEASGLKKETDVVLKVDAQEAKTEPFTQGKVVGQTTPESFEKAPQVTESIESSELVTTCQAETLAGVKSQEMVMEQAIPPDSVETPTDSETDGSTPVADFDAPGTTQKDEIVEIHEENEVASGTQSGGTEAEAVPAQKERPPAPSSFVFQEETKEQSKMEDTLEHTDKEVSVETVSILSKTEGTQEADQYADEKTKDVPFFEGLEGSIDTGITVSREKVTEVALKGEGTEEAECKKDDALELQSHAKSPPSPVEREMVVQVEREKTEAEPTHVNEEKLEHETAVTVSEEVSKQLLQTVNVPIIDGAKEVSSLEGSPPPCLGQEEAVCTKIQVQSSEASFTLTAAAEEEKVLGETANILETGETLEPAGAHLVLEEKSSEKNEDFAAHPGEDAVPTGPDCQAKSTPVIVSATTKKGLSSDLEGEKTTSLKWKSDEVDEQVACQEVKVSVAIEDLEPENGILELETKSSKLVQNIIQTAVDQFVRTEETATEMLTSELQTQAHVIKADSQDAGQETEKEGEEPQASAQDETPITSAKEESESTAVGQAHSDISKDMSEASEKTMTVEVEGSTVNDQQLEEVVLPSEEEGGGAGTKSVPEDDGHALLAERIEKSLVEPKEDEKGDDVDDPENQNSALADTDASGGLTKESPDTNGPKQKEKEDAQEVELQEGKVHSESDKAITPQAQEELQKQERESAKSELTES

Target: Girdin (girders of actin filament) (human (endogenous in BxPC-3 and PANC-1)) (UniProt Q3V6T2)
Test: affinity purification with mass spectrometry; lysates of BxPC-3 cells transfected with Scramble or Girdin lentivirus, immunoprecipitated with anti-Girdin antibody; LC-MS/MS on LTQ-Orbitrap, MaxQuant

| Substance | binding |
| --- | --- |
| Pyruvate kinase PKM (from UniProt P14618 1-531) | binds |
| Drebrin (from UniProt Q16643 1-649) | binds |
| Isoform 8 of Filamin-B (from UniProt O75369-8 1-2633) | binds |
| Heat shock protein HSP 90-alpha (from UniProt P07900 1-732) | binds |
| Isoform 3 of Heterogeneous nuclear ribonucleoprotein K (from UniProt P61978-3 1-440) | binds |
| Annexin A2 (from UniProt P07355 1-339) | binds |
| Ezrin (from UniProt P15311 1-586) | binds |
| Clathrin heavy chain (from UniProt Q00610 1-1675) | binds |
| Filamin-A (from UniProt P21333 1-2647) | binds |
| Alpha-actinin-4 (from UniProt O43707 1-911) | binds |
| Isoform 2 of F-actin-capping protein subunit beta (from UniProt P47756-2 1-272) | binds |
| 14-3-3 protein epsilon (from UniProt P62258 1-255) | binds |
| Spectrin beta chain, non-erythrocytic 1 (from UniProt Q01082 1-2364) | binds |
| C-1-tetrahydrofolate synthase, cytoplasmic (from UniProt P11586 1-935) | binds |
| Myosin-9 (from UniProt P35579 1-1960) | binds |

Other lines, results leading:

| binding | Substance |
| --- | --- |
| binds | P62/SQSTM1 (Sequestosome-1) (from UniProt Q13501 1-440) |
| binds | Glucose-6-phosphate isomerase (Fragment) (from UniProt P06744 1-558) |
| binds | Isoform 4 of LIM domain and actin-binding protein 1 (from UniProt Q9UHB6-4 1-760) |
| binds | 60 kDa heat shock protein, mitochondrial (from UniProt P10809 27-573) |
| binds | Stress-70 protein, mitochondrial (from UniProt P38646 47-679) |
| binds | Alpha-enolase (from UniProt P06733 1-434) |
| binds | prolyl 4-hydroxylase subunit beta (from UniProt P07237 18-508) |
| binds | T-complex protein 1 subunit theta (from UniProt P50990 1-548) |
| binds | Heat shock protein HSP 90-beta (from UniProt P08238 1-724) |
| binds | Calnexin (from UniProt P27824 21-592) |
| binds | Vimentin (from UniProt P08670 1-466) |
| binds | Isoform 3 of A-kinase anchor protein 12 (from UniProt Q02952-3 1-1677) |
| binds | Endoplasmin (from UniProt P14625 22-803) |
